According to article PMC7322359:

B1: Small nuclear ribonucleoprotein polypeptide (protein, UniProt D3ZZR5 1-255)
chain: MVKLTAELIEQAAQYTNAVRDRELDLRGYKIPVIENLGATLDQFDAIDFSDNEIRKLDGFPLLRRLKTLLVNNNRICRIGEGLDQALPCLTELILTNNSLVELGDLDPLASLKSLTYLSILRNPVTNKKHYRLYVIYKVPQVRVLDFQKVKLKERQEAEKMFKGKRGAQLAKDIARRSKTFNPGAGLPTDKKKGGPSAGDVEAIKNAIANASTLAEVERLKGLLQSGQIPGRERRSGPSDEGEEEMEDGTVTNGS
B2: ATP-sensitive inward rectifier potassium channel 11 (protein, UniProt P70673 1-390)
chain: MLSRKGIIPEEYVLTRLAEDPTEPRYRTRERRARFVSKKGNCNVAHKNIREQGRFLQDVFTTLVDLKWPHTLLIFTMSFLCSWLLFAMVWWLIAFAHGDLAPGEGTNVPCVTSIHSFSSAFLFSIEVQVTIGFGGRMVTEECPLAILILIVQNIVGLMINAIMLGCIFMKTAQAHRRAETLIFSKHAVITLRHGRLCFMLRVGDLRKSMIISATIHMQVVRKTTSPEGEVVPLHQVDIPMENGVGGNSIFLVAPLIIYHVIDSNSPLYDLAPSDLHHHQDLEIIVILEGVVETTGITTQARTSYLADEILWGQRFVPIVAEEDGRYSVDYSKFGNTVKVPTPLCTARQLDEDRSLLDALTLASSRGPLRKRSVAVAKAKPKFSISPDSLS
B3: Nuclear cap-binding protein subunit 1 (protein, UniProt Q56A27 1-790)
chain: MSRRRHSYENDGGQPHKRRKTSDANETEDHLESLICKVGEKSACSLESNLEGLAGVLEADLPNYKSKILRLLCTVARLLPEKLTIYTTLVGLLNARNYNFGGEFVEAMIRQLKESLKANNYNEAVYLVRFLSDLVNCHVIAAPSMVAMFENFVSVTQEEDVPQVRRDWYVYAFLSSLPWVGKELYEKKDAEMDRIFSSTESYLKRRQKTHVPMLQVWTADKPHPQEEYLDCLWAQIQKLKKDRWQERHILRPYLAFDSILCEALQHNLPPFTPPPHTEDSVYPMPRVIFRMFDYTDDPEGPVMPGSHSVERFVIEENLHCIIKSYWKERKTCAAQLVSYPGKNKIPLNYHIVEVIFAELFQLPAPPHIDVMYTTLLIELCKLQPGSLPQVLAQATEMLYMRLDTMSTTCVDRFINWFSHHLSNFQFRWSWEDWSDCLTQDLESPKPKFVREVLEKCMRLSYHQHILDIVPPTFSALCPANPTCIYKYGDESSNSLPGHSVALCLSVAFKSKATNDEIFSILKDVPNPNQVDDDDEGFRFNPLKIEVFVQTLLHLAAKSFSHSFSALAKFHEVFKTLAESDKGKLHVLRVMFEVWRNHPQMIAVLVDKMIRTQIVDCAAVANWIFSSELSRDFTRLFVWEILHSTIRKMNKHVLKIQKELEEAKEKLARQHKRRSDDDDRGSDRKDGALEEQIERLQEKVESAQSEQKNLFLVIFQRFIMILTEHLVRCETDGTSILTPWYKNCIERLQQIFLQHHQIIQQYMVTLENLLFTAELDPHILAVFQQFCALQA
B4: phosphatidylinositol 5-phosphate 4-kinase type-2 gamma (enzyme, UniProt O88370 1-420)
chain: MASSSVPPATAPAAAGGPGPGFGFASKTKKKHFVQQKVKVFRAADPLVGVFLWGVAHSINELSQVPPPVMLLPDDFKASSKIKVNNHLFHRENLPSHFKFKEYCPQVFRNLRDRFAIDDHDYLVSLTRSPPSETEGSDGRFLISYDRTLVIKEVSSEDIADMHSNLSNYHQYIVKCHGNTLLPQFLGMYRVSVENEDSYMLVMRNMFSHRLPVHRKYDLKGSLVSREASDKEKVKELPTLKDMDFLNKNQKVYIGEEEKKVFLEKLKRDVEFLVQLKIMDYSLLLGIHDIIRGSEPEEEGPVREEESEWDGDCNLTGPPALVGSYGTSPEGIGGYIHSHRPLGPGEFESFIDVYAIRSAEGAPEGGVFHGLIDILTQYDAKKKAAHAAKTVKHGAGAEISTVHPEQYAKRFLDFISNIFA
B5: granuphilin (synaptotagmin-like 4) (protein, UniProt Q8VHQ7 1-672)
chain: MSEILDLSFLSEMERDLILSVLQRDEELRKADEKRIRRLKNELLEIKRKGAKRGSQHYSDRTCARCQEGLGRLISKSNTCVGCNHLVCRECRVLESNGSWRCKVCSKEIELKKATGDWFYDQKVNRFAYRTGSDIIRMSLRRKPAVNKRETVGQSLLQQTQMGDIWPGRRIIQEQQKEQSVLFEVPKLKSGKSALEAESESLDSYTADSDSTSRRDSLDKSGLFPEWKKMSAPKSQVEKEIAPGNQNAVCGDEGDMIFKKNTRKVLRPSEYTKSVIDLRPEDVAQESGILGDRSKSVPGLSVDMEDEEEEEEDIDHLVKLHRQKLARGSMQSGSSMSTIGSMMSLYSEAGDFGNVSVTGKIAFSLKFEQKTQTLVIHVKECHQLAYADEAKKRSNPYVKTYLLPDKSRQGKRKTSIKRDTINPLYDETFRYEISESLLAQRTLQFSVWHHGRFGRNTFLGEAEVHMDSWKLDKKLDHCLPLHGKISTESSPGLPAHKGELVVSLKYIPASKLPVGGDRKKSKGGEGGELQVWIKEAKNLTAAKSGGTSDSFVKGYLLPMRNKASKRKTPVMKKTLNPHYNHTFVYNGVRLEDLQHMCLELTVWDREPLASNDFLGGVRLGVGTGISSGEVVDWMDSTGEEVSLWQKMRQYPGSWAEGTLQLRSSMVKQKLGV
B6: Pre-mRNA-processing factor 3 (protein, UniProt A0A0G2JTI7 1-101)
chain: MALSKRELDELKPWIEKTVKRVLGFSEPTVVTAALNCVGKGMDKKKAADHLKPFLDDSTLRFVDKLFEAVEEGRSSRHSKSSSDRSRKRELKEFQEALAPG
B7: Heterogeneous nuclear ribonucleoprotein Q (protein, UniProt Q7TP47 1-533)
chain: MATEHVNGNGTEEPMDTTSAVIHSENFQTLLDAGLPQKVAEKLDEIYVAGQRKYGGPPPDSVYSGQQPSVGTEIFVGKIPRDLFEDELVPLFEKAGPIWDLRLMMDPLTGLNRGYAFVTFCTKEAAQEAVKLYNNHEIRSGKHIGVCISVANNRLFVGSIPKSKTKEQILEEFSKVTEGLTDVILYHQPDDKKKNRGFCFLEYEDHKTAAQARRRLMSGKVKVWGNVGTVEWADPIEDPDPEVMAKVKVLFVRNLANTVTEEILEKSFSQFGKLERVKKLKDYAFIHFDERDGAVKAMEEMNGKDLEGENIEIVFAKPPDQKRKERKAQRQAAKNQMYDDYYYYGPPHMPPPTRGRGRGGRGGYGYPPDYYGYEDYYDYYGYDYHNYRGGYEDPYYGYEDFQVGARGRGGRGARGAAPSRGRGAAPPRGRAGYSQRGGPGSARGVRGARGGAQQQRGRGVRGARGGRGGNVGGKRKADGYNQPDSKRRQTNNQNWGSQPIAQQPLQGGDHSGNYGYKSENEEFYQDTFGQQWK
B8: 26S proteasome non-ATPase regulatory subunit 1 (protein, UniProt O88761 1-953)
chain: MITSAAGIISLLDEEEPQLKEFALHKLNAVVNDFWAEISESVDKIEVLYEDEGFRSRQFAALVASKVFYHLGAFEESLNYALGAGDLFNVNDNSEYVETIIAKCIDHYTKQCVENADLPEGEKKPIDQRLEGIVNKMFQRCLDDHKYKQAIGIALETRRLDVFEKTILESNDVPGMLAYSLKLCMSLMQNKQFRNKVLRVLVKIYMNLEKPDFINVCQCLIFLDDTQAVSDILEKLVKEDNLLMAYQICFDLYESASQQFLSSVIQNLRTVGTPIASVPGSTNTGTVPGPEKDSDSMETEEKTAGAVAGKTPDASPEPKDQTLKMIKILSGEMAIELHLQFLIRNNNTDLMILKNTKDAVRNSVCHTATVIANSFMHCGTTSDQFLRDNLEWLARATNWAKFTATASLGVIHKGHEKEALQLMATYLPKDTSPGSAYQEGGGLYALGLIHANHGGDIIDYLLNQLKNASNDIVRHGGSLGLGLAAMGTARQDVYDLLKTNLYQDDAVTGEAAGLALGLVMLGSKNTQAIEDMVGYAQETQHEKILRGLAVGIALVMYGRMEEADALIESLCRDKDPILRRSGMYTVAMAYCGSGNNKAIRRLLHVAVSDVNDDVRRAAVESLGFILFRTPEQCPSVVSLLSESYNPHVRYGAAMALGVCCAGTGNKEAINLLEPMTNDPVNYVRQGALIASALIMIQQTEITCPKVNQFRQLYSKVINDKHDDVMAKFGAILAQGILDAGGHNVTISLQSRTGHTHMPSVVGVLVFTQFWFWFPLSHFLSLAYTPTCIIGLNKDLKMPKVQYKSNCKPSTFAYPAPLEVPKEKEKEKVSTAVLSITAKAKKKEKEKEKKEEEKMEVDEAEKKEEKEKKKEPEPNFQLLDNPARVMPAQLKVLSMTETCRYQPFKPLSIGGIIILKDTSEDIEELVEPVAAHGPKIEEEEQEPEPPEPFEYIDD

Molecular target: StAR Related Lipid Transfer Domain Containing 10 (rat (endogenous in INS1 (832/13)))
Assay: affinity purification with mass spectrometry; endogenous STARD10 immunoprecipitated from 1 mg INS1 (832/13) lysate with anti-PCTP-L (STARD10) antibody on Dynabeads Protein A, overnight at 4 °C; lysis buffer 20 mM HEPES, 150 mM NaCl, 1% Igepal; compared with rabbit IgG isotype control; on-bead trypsin digest, TMT labelling, nano-LC MS/MS

binding, binds:
B1
B2
B3
B4
B5
B6
B7
B8

These are yes or no findings as the source states them, for the method shown. In cells and extracts the contact can be indirect. These calls come from enrichment with a bait or labelling near it, and not all partners need be listed. Where a sequence is shown, tags or fusion partners need not be part of it.
